# ± gives the standard deviation of the averaged measurements. Only a part is listed here, and it is no random draw. Most values lie at the level of the controls, where differences are scatter.
# Chains of the proteins cited; added tags and fusions are not shown. Lines headed by an entry give the natural chain unless they say otherwise; changes in a name come on top.
# UniProt P27105: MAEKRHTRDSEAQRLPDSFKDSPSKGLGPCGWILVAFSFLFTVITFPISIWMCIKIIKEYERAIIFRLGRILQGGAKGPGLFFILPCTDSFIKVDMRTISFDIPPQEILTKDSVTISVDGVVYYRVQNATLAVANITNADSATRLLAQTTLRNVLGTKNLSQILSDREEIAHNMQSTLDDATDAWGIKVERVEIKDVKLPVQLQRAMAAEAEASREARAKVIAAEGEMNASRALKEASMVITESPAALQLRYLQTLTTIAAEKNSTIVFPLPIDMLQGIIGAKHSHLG
# UniProt P33991: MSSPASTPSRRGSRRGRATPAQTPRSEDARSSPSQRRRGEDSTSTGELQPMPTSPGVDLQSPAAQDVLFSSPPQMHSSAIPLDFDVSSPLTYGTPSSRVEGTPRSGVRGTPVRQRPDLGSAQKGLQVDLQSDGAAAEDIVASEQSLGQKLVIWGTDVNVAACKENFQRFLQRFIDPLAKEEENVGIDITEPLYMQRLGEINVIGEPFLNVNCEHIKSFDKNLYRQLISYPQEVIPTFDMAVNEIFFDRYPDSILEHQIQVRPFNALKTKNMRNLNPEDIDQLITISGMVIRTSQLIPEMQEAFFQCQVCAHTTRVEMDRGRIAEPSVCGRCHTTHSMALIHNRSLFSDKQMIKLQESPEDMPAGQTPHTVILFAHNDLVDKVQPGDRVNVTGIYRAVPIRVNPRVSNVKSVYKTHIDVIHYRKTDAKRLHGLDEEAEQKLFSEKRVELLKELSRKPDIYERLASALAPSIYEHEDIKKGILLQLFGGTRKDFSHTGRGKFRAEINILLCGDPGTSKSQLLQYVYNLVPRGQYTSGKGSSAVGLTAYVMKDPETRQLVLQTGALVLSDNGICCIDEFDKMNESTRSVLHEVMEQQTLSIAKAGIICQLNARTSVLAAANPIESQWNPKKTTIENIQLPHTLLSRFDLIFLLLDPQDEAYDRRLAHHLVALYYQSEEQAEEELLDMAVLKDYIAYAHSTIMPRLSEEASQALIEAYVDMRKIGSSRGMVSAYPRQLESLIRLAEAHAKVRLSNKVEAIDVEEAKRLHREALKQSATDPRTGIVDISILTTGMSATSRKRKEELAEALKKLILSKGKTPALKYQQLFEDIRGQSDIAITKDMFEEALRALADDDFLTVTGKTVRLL
# UniProt P20338: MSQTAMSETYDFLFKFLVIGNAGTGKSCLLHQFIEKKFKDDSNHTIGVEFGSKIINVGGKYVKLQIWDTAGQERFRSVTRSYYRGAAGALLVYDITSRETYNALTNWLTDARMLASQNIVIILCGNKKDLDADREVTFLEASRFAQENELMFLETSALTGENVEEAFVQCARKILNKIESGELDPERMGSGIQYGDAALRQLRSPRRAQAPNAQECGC
# UniProt P35249, whole entry: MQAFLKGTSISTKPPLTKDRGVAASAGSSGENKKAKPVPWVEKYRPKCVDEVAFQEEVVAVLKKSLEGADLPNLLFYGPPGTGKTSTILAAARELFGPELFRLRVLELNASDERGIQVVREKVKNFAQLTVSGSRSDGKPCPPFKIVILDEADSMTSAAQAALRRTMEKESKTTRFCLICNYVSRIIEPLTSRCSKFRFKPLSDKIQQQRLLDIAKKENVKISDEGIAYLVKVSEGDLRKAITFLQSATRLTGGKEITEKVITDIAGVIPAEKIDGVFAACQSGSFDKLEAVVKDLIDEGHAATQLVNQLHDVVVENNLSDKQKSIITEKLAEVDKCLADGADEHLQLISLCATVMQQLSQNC
# UniProt P19793: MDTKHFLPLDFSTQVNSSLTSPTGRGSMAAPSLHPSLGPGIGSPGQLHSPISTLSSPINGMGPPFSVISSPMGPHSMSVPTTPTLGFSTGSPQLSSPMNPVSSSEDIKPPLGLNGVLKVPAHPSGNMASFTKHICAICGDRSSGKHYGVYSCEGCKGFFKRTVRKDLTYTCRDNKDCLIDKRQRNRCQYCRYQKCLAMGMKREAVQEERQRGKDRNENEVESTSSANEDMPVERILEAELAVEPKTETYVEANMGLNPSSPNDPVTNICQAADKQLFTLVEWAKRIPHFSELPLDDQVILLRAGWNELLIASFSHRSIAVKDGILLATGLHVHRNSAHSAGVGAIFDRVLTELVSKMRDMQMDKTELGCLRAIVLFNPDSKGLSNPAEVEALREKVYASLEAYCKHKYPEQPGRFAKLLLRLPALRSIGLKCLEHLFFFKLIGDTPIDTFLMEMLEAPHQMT
# UniProt P17858: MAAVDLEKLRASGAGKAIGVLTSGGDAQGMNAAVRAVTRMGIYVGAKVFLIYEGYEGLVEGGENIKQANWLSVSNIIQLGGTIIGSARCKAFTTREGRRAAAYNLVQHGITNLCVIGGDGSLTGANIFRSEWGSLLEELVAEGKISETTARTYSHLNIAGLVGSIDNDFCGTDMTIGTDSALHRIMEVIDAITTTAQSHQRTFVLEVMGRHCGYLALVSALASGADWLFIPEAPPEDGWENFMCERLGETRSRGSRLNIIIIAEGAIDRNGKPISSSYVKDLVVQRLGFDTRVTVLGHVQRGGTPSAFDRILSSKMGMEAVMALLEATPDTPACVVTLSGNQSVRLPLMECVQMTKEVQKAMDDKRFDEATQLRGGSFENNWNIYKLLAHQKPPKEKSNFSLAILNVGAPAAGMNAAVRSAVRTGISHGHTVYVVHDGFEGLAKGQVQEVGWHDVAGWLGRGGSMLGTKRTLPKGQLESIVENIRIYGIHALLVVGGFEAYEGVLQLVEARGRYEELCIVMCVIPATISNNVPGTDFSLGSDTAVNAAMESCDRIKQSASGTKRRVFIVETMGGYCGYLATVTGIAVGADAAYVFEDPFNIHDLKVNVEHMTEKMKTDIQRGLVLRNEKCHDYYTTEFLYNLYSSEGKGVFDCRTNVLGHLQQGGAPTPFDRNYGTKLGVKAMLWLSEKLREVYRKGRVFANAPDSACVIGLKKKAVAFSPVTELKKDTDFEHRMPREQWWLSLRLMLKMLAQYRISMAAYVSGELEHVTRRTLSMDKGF
# UniProt P31942: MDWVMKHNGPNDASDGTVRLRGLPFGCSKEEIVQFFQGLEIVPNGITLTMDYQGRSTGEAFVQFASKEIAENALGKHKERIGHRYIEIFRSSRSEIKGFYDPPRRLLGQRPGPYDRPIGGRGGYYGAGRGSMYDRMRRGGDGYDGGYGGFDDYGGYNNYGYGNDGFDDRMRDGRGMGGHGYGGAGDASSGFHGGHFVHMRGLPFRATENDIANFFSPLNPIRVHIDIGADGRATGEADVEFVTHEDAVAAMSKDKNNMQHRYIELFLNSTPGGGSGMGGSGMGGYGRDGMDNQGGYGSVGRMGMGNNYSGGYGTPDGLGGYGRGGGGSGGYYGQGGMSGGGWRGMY
# UniProt P19419: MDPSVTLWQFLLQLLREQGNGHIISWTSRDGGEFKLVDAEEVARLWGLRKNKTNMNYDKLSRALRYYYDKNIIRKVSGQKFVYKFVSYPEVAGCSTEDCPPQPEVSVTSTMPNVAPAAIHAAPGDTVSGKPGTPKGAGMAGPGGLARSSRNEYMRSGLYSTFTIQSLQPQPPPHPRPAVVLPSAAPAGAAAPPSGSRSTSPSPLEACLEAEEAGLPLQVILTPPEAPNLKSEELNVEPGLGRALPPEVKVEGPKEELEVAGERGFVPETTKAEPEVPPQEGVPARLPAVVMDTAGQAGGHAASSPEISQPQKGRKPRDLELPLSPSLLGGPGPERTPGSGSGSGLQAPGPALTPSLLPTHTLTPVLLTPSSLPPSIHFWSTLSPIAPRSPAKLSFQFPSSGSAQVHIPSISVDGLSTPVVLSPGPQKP
# UniProt P32242: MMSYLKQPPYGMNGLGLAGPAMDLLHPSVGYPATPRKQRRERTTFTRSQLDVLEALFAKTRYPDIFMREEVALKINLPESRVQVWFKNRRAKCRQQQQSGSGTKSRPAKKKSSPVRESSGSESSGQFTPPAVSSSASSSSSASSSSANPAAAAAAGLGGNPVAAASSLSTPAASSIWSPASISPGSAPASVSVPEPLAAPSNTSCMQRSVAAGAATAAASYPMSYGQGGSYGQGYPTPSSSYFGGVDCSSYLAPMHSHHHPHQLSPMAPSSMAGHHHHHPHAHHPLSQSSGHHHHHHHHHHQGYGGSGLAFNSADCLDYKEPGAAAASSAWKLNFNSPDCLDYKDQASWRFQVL
# UniProt P17041: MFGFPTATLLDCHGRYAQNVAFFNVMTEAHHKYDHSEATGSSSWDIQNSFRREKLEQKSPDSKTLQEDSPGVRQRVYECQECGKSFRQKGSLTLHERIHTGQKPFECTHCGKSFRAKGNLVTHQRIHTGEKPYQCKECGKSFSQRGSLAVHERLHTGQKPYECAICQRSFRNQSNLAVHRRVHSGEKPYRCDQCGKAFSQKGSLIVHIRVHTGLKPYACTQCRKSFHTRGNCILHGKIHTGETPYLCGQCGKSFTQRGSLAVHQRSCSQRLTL
# UniProt P23919: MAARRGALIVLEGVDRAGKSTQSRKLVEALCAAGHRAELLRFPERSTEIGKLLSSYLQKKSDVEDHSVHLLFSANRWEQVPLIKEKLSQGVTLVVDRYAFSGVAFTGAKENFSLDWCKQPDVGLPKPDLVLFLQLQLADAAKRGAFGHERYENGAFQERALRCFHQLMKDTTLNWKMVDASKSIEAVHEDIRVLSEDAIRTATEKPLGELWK
# UniProt P35579, whole entry: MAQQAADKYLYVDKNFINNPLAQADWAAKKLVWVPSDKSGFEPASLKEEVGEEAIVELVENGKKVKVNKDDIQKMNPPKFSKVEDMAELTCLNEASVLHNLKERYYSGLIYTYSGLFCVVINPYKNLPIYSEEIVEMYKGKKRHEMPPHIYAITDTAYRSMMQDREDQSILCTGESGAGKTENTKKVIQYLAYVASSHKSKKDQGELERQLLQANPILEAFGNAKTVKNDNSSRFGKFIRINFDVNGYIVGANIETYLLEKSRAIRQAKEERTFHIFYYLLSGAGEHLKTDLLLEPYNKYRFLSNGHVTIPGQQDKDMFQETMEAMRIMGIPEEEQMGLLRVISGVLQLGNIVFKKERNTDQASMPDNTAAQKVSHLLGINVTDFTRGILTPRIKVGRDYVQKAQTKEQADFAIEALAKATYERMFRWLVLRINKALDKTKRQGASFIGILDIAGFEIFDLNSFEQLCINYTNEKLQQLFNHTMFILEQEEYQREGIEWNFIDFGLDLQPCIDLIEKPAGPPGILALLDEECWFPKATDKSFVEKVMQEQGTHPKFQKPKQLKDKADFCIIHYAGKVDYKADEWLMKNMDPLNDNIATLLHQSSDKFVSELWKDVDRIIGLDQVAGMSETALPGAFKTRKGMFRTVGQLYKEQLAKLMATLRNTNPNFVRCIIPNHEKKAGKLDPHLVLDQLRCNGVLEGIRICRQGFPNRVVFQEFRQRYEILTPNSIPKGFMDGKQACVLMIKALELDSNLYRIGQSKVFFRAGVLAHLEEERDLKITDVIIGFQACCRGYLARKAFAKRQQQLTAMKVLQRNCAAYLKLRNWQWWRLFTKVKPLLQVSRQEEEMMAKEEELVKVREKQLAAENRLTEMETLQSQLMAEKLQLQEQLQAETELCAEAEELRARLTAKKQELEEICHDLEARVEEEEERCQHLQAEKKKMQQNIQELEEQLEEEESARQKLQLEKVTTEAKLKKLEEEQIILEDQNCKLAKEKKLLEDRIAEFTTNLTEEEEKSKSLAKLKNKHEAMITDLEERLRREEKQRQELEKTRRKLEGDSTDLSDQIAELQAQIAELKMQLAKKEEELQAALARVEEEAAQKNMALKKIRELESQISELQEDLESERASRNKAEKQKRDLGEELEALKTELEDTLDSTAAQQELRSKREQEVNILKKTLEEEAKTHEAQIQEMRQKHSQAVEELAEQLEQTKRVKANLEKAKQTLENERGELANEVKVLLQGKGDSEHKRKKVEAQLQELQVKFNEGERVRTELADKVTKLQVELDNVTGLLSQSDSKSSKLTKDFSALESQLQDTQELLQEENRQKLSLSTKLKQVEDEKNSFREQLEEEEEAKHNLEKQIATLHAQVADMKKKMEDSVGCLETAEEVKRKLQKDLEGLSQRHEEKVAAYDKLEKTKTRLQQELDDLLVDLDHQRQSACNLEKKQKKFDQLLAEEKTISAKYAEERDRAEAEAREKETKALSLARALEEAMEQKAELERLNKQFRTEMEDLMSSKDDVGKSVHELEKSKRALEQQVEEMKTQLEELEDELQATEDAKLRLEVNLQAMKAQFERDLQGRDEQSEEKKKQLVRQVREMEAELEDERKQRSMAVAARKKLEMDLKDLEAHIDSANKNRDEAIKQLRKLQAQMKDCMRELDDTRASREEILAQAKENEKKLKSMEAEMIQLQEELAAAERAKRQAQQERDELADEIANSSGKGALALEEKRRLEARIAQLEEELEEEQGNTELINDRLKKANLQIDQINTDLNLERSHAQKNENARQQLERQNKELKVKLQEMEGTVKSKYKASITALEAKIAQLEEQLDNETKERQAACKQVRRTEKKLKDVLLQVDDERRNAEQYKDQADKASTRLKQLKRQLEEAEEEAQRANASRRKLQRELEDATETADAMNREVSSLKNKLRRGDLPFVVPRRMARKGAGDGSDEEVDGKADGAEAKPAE
# Compound: Nc1ncnc2c1ncn2[C@@H]1O[C@H](COP(=O)(O)OP(=O)(O)OP(=O)(O)O)[C@@H](O)[C@H]1O [adenosine triphosphate]
# Assay: NP40-soluble protein abundance relative to vehicle (solubility fold change) (ratio); higher = more soluble protein in presence of ATP
# Conditions: concentration: 0.1mM
# Summary of the method: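 Values are fold changes against the detergent-processed vehicle, based on vsn-normalised intensities. Jurkat crude lysate was treated at eight concentrations from 0.1 to 10 mM (10 min at room temperature, then 3 min at 37 °C), solubilised with 0.8% NP40 and benzonase, ultracentrifuged and analysed by TMT-labelled LC-MS/MS over three independent experiments.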
row,Target,NP40-soluble protein abundance
1,UniProt P27105 and related entries,1.13 ± 0.16
2,UniProt P33316 and related entries,0.999 ± 0.021
3,UniProt P30307 and related entries,1.01 ± 0.059
4,ATP6V1C1 (UniProt P21283),1.02 ± 0.048
5,MCM4 (UniProt P33991),1.02 ± 0.049
6,UniProt P22033,1.02 ± 0.046
7,UniProt P35606 and related entries,1.04 ± 0.068
8,UniProt P18433 and related entries,1.11 ± 0.069
9,UniProt P17812,1.03 ± 0.082
10,UQCRC2 (UniProt P22695),0.987 ± 0.032
11,UniProt P27540 and related entries,1.02 ± 0.017
12,RAB4A (UniProt P20338),1.03 ± 0.066
13,RFC4 (UniProt P35249),1.05 ± 0.046
14,UniProt P19793 and related entries,1.01 ± 0.052
15,PRKAR2B (UniProt P31323),1.03 ± 0.021
16,HIBADH (UniProt P31937),0.948 ± 0.062
17,PFKL (UniProt P17858),1.02 ± 0.039
18,DGKA (UniProt P23743),1.1 ± 0.089
19,POLR2E (UniProt P19388),1.05 ± 0.052

row,Target,NP40-soluble protein abundance
1,ZKSCAN1 (UniProt P17029),0.936 ± 0.079
2,UniProt P35609-2,0.882 ± 0.057
3,UniProt P32321 and related entries,0.987 ± 0.027
4,UniProt P28066,0.994 ± 0.022
5,UniProt P23610,0.931 ± 0.056
6,UniProt P31942 and related entries,0.999 ± 0.05
7,ELK1 (UniProt P19419),0.896 ± 0.17
8,UniProt P30622-1|P30622-2,0.996 ± 0.024
9,UniProt P32242,0.912 ± 0.11
10,UniProt P17041,0.971 ± 0.016
11,UniProt P20290 and related entries,0.963 ± 0.092
12,DTYMK (UniProt P23919),0.995 ± 0.049
13,GOT1 (UniProt P17174),0.999 ± 0.067
14,UniProt P29016,0.888 ± 0.093
15,UQCRC1 (UniProt P31930),1.034 ± 0.0098
16,RPL35A (UniProt P18077),1.04 ± 0.17
17,UniProt P30519 and related entries,0.963 ± 0.054
18,MYH9 (UniProt P35579),0.959 ± 0.06

# Same assay, conditions: concentration: 0.5mM
row,Target,NP40-soluble protein abundance
1,UniProt P27105 and related entries,1.16 ± 0.069
2,UniProt P33316 and related entries,0.992 ± 0.022
3,UniProt P30307 and related entries,1.02 ± 0.067
4,ATP6V1C1 (UniProt P21283),1.02 ± 0.042
5,MCM4 (UniProt P33991),1.02 ± 0.045
6,UniProt P22033,1.03 ± 0.047
7,UniProt P35606 and related entries,1.04 ± 0.039
8,UniProt P18433 and related entries,1.04 ± 0.046
9,UniProt P17812,1.02 ± 0.057
10,UQCRC2 (UniProt P22695),0.958 ± 0.025
11,UniProt P27540 and related entries,0.998 ± 0.025
12,RAB4A (UniProt P20338),0.983 ± 0.11
13,RFC4 (UniProt P35249),1.14 ± 0.011
14,UniProt P19793 and related entries,1.07 ± 0.15
15,PRKAR2B (UniProt P31323),1.04 ± 0.052
16,HIBADH (UniProt P31937),0.952 ± 0.083
17,PFKL (UniProt P17858),1.05 ± 0.056
18,DGKA (UniProt P23743),1.17 ± 0.11
19,POLR2E (UniProt P19388),1.05 ± 0.019

row,Target,NP40-soluble protein abundance
1,ZKSCAN1 (UniProt P17029),0.96 ± 0.084
2,UniProt P35609-2,0.984 ± 0.11
3,UniProt P32321 and related entries,0.921 ± 0.078
4,UniProt P28066,0.981 ± 0.012
5,UniProt P23610,0.914 ± 0.059
6,UniProt P31942 and related entries,1.02 ± 0.037
7,ELK1 (UniProt P19419),0.868 ± 0.23
8,UniProt P30622-1|P30622-2,1.02 ± 0.05
9,UniProt P32242,0.961 ± 0.14
10,UniProt P17041,1 ± 0.029
11,UniProt P20290 and related entries,1.01 ± 0.035
12,DTYMK (UniProt P23919),0.992 ± 0.034
13,GOT1 (UniProt P17174),1 ± 0.035
14,UniProt P29016,0.869 ± 0.13
15,UQCRC1 (UniProt P31930),1.03 ± 0.05
16,RPL35A (UniProt P18077),0.959 ± 0.12
17,UniProt P30519 and related entries,0.925 ± 0.049
18,MYH9 (UniProt P35579),1.05 ± 0.12

# Reference: the supplement of paper PMC6411743
